Assay results reported in doi:10.1101/719559.
Results are given in words; binding and its absence hold for the method and conditions named. Binding seen in cells or lysates may run through a third protein.

Amino acid sequences for entries named in this document (tags omitted). A change or cut given only in a name is not applied to a line headed by its entry.
UniProt Q9NRC8: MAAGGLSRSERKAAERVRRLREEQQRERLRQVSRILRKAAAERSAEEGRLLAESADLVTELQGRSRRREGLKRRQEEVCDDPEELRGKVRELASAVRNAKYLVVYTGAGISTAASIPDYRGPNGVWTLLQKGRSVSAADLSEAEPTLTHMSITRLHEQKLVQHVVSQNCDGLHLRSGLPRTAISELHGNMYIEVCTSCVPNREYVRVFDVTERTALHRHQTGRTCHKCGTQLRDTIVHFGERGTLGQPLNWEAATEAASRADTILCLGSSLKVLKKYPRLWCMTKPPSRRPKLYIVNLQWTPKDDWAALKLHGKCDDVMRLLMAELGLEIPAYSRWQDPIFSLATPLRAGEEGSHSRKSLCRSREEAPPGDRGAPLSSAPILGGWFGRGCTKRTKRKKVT

Biological target: SirT7 N189A expressed in HEK293F cells (UniProt Q9NRC8)
Assay: co-IP

In the case of “endogenous mH2A1.1 (HEK293F cells) (from UniProt O75367-2 1-369)”, the binding is reported as “no binding”.
